No constants are given. Whether binding was seen depends on the method and setting. Binding seen in cells or lysates may run through a third protein. Some binding calls cover weakened binding; strength is not graded here. Where a sequence is shown, tags or fusion partners need not be part of it.
T1: Flag-tagged RIG-I full length (UniProt O95786)
T1 sequence: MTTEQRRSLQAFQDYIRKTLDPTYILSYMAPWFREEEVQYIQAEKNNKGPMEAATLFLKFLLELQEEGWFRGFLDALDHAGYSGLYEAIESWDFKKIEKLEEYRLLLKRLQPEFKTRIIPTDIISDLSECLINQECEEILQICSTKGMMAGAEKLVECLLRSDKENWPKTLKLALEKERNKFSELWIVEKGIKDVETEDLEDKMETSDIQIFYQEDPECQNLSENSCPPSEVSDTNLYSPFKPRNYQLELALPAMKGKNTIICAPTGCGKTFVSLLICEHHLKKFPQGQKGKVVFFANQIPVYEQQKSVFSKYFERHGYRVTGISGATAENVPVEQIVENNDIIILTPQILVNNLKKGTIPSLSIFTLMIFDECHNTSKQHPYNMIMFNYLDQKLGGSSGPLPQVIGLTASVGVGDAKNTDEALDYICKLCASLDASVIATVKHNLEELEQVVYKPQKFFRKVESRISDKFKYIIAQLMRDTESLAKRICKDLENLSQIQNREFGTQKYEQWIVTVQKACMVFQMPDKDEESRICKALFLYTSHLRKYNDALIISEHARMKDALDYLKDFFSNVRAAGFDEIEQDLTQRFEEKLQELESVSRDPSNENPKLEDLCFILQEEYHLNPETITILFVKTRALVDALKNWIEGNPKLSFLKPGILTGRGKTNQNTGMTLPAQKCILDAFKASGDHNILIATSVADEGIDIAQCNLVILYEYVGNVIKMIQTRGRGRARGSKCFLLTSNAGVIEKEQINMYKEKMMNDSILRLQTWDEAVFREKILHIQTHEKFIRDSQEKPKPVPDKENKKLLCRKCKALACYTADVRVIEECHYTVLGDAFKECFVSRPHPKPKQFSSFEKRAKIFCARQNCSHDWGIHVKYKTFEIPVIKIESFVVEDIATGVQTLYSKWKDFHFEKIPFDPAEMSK


Molecular target: T1, Flag-tagged RIG-I full length
Assay: co-IP; HEK293T transfected with RIG-I and TRIM4, TRIM25 or RNF135 for 24 hr, with or without exogenous LSD1 (Fig 5E) or after siNC or LSD1 siRNA (Fig 5F); RIG-I as bait; immunoblot

Binder | binding
HA-tagged TRIM4 (enzyme, UniProt Q9C037 1-500) MEAEDIQEELTCPICLDYFQDPVSIECGHNFCRGCLHRNWAPGGGPFPCPECRHPSAPAALRPNWALARLTEKTQRRRLGPVPPGLCGRHWEPLRLFCEDDQRPVCLVCRESQEHQTHAMAPIDEAFESYRTGNFDIHVDEWKRRLIRLLLYHFKQEEKLLKSQRNLVAKMKKVMHLQDVEVKNATQWKDKIKSQRMRISTEFSKLHNFLVEEEDLFLQRLNKEEEETKKKLNENTLKLNQTIASLKKLILEVGEKSQAPTLELLQNPKEVLTRSEIQDVNYSLEAVKVKTVCQIPLMKEMLKRFQVAVNLAEDTAHPKLVFSQEGRYVKNTASASSWPVFSSAWNYFAGWRNPQKTAFVERFQHLPCVLGKNVFTSGKHYWEVESRDSLEVAVGVCREDVMGITDRSKMSPDVGIWAIYWSAAGYWPLIGFPGTPTQQEPALHRVGVYLDRGTGNVSFYSAVDGVHLHTFSCSSVSRLRPFFWLSPLASLVIPPVTDRK | binds
HA-tagged RNF135 (enzyme, UniProt Q8IUD6 1-432) MAGLGLGSAVPVWLAEDDLGCIICQGLLDWPATLPCGHSFCRHCLEALWGARDARRWACPTCRQGAAQQPHLRKNTLLQDLADKYRRAAREIQAGSDPAHCPCPGSSSLSSAAARPRRRPELQRVAVEKSITEVAQELTELVEHLVDIVRSLQNQRPLSESGPDNELSILGKAFSSGVDLSMASPKLVTSDTAAGKIRDILHDLEEIQEKLQESVTWKEAPEAQMQGELLEAPSSSSCPLPDQSHPALRRASRFAQWAIHPTFNLKSLSCSLEVSKDSRTVTVSHRPQPYRWSCERFSTSQVLCSQALSSGKHYWEVDTRNCSHWAVGVASWEMSRDQVLGRTMDSCCVEWKGTSQLSAWHMVKETVLGSDRPGVVGIWLNLEEGKLAFYSVDNQEKLLYECTISASSPLYPAFWLYGLHPGNYLIIKQVKV | binds

Source: PMC8445485
